The values below come from patent US20050261196A1 (UNIVERSITY OF CHICAGO, published 2005).

Amino acid sequences for entries named in this document (tags omitted).
UniProt Q15746: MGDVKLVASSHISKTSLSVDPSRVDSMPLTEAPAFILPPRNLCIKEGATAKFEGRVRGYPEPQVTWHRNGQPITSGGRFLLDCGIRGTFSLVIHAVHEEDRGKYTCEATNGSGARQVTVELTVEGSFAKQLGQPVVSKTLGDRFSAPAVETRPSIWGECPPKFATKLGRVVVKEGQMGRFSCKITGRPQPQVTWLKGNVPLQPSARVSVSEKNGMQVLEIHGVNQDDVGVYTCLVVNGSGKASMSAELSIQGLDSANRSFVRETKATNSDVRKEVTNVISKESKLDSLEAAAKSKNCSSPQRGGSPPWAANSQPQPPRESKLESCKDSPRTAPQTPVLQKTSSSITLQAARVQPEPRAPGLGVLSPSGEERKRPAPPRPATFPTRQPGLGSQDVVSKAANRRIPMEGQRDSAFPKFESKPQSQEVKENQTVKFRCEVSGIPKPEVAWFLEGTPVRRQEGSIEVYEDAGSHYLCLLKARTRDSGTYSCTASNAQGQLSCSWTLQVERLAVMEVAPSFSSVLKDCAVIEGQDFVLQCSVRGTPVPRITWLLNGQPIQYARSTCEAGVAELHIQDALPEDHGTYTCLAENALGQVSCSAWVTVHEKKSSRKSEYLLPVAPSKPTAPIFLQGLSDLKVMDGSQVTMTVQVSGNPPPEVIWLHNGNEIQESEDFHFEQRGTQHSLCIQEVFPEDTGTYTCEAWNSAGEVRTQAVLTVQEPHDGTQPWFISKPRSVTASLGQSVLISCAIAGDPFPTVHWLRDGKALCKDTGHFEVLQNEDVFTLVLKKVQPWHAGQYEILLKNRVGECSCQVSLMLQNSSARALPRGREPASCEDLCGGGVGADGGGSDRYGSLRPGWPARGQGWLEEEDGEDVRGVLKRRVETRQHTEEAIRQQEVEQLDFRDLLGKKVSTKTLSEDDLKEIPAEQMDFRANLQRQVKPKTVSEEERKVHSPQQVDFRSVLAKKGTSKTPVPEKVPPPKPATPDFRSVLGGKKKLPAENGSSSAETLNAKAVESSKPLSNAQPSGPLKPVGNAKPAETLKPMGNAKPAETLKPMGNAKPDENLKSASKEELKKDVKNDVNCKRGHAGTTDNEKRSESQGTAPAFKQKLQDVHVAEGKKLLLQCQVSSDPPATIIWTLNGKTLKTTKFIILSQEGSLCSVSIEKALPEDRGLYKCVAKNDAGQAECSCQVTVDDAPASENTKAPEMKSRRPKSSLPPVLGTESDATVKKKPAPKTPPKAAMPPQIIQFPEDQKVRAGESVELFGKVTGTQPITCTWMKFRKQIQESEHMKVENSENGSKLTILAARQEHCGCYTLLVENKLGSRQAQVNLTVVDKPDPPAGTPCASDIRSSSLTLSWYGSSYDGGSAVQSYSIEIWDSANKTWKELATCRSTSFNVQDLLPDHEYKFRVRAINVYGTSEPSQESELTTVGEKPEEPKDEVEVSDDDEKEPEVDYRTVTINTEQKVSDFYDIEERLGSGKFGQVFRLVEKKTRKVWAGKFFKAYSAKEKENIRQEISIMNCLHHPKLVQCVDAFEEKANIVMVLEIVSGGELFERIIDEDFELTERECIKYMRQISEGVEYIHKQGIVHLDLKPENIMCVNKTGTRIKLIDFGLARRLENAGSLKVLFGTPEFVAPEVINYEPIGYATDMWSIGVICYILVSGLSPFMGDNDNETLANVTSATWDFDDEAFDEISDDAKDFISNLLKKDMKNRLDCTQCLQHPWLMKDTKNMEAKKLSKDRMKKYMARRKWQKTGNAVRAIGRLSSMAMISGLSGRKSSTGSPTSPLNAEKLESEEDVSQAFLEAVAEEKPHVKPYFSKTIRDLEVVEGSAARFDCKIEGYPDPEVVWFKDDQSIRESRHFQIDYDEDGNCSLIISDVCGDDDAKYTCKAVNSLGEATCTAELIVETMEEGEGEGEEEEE

Results are given in words; binding and its absence hold for the method and conditions named. Some binding calls cover weakened binding; strength is not graded here.

The target in the experiment is active (activated) MLCK, aldehyde-fixed (UniProt Q15746). The experiment can be described thus: binding of PIK probe to aldehyde-fixed MLCK, streptavidin fluorescence.

Take RKKYKYRRK [PIK (SEQ ID NO: 12)]: the binding result is “binds”.
